# Where a name gives a salt, the structure may show the parent alone. The list shows a part of the results. Hit calls seldom repeat between salt and free forms of one compound.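 Kinases were expressed as nanoluciferase fusions in K562 cells and luminescence was read every 4 h between 2 and 18 h as percent of control, DMSO set to 100% and a positive control to 0%. A time point counts as decreased when the signal drops significantly (2 sigma). The hit call is the authors' own, does not follow from the count of time points alone, and its rule is not shown.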
# Amino acid sequences for entries named in this document (tags omitted). A change or cut given only in a name is not applied to a line headed by its entry.
# UniProt O15530: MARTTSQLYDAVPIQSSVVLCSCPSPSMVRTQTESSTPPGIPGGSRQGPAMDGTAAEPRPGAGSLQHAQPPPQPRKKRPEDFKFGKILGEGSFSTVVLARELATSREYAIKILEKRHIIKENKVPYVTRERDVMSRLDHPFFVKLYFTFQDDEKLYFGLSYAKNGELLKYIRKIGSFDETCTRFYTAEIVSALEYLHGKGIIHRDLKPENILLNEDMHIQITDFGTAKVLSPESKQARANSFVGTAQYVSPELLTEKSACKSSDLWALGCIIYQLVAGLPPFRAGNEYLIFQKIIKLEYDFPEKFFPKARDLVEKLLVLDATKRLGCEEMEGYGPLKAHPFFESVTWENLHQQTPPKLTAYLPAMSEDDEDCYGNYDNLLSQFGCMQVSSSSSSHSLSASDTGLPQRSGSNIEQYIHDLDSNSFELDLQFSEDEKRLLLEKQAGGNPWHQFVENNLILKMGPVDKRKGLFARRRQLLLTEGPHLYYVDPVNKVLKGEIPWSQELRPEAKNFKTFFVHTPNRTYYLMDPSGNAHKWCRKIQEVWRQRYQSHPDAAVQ
# UniProt Q9UBF8: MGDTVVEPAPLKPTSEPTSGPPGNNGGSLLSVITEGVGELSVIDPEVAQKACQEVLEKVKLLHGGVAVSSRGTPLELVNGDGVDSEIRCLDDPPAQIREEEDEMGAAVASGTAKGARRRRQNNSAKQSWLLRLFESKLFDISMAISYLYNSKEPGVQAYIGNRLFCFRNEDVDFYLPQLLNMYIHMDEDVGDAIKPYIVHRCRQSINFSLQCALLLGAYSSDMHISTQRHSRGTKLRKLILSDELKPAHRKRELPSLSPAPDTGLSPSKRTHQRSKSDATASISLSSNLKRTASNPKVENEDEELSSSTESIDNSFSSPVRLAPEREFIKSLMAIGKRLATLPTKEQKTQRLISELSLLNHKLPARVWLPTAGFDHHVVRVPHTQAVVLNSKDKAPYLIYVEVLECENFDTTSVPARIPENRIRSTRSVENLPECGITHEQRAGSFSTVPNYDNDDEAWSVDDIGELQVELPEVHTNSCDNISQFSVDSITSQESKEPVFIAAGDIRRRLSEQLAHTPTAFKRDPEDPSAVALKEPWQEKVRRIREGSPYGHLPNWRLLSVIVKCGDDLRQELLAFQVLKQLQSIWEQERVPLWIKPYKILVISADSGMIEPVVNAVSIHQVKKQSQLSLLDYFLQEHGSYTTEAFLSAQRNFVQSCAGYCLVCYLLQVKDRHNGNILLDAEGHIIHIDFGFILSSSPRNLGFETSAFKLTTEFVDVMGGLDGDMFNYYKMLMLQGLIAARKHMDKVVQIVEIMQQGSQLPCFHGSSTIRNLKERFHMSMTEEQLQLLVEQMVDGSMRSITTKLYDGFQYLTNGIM
# UniProt Q13131: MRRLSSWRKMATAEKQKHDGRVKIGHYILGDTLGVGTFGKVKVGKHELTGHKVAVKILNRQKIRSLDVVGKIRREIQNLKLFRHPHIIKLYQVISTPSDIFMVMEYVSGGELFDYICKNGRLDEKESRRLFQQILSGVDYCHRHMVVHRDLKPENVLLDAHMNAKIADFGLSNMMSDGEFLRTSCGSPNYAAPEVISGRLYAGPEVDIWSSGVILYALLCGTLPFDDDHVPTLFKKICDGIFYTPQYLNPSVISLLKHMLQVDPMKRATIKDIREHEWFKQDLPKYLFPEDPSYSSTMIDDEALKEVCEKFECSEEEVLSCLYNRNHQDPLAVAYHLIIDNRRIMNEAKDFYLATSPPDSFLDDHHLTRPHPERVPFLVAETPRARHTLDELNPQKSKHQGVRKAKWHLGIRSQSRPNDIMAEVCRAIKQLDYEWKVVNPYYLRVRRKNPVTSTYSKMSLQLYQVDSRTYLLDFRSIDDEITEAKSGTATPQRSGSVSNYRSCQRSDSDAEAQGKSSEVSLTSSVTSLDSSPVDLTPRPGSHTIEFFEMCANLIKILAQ
# UniProt Q14289, whole entry, looked up: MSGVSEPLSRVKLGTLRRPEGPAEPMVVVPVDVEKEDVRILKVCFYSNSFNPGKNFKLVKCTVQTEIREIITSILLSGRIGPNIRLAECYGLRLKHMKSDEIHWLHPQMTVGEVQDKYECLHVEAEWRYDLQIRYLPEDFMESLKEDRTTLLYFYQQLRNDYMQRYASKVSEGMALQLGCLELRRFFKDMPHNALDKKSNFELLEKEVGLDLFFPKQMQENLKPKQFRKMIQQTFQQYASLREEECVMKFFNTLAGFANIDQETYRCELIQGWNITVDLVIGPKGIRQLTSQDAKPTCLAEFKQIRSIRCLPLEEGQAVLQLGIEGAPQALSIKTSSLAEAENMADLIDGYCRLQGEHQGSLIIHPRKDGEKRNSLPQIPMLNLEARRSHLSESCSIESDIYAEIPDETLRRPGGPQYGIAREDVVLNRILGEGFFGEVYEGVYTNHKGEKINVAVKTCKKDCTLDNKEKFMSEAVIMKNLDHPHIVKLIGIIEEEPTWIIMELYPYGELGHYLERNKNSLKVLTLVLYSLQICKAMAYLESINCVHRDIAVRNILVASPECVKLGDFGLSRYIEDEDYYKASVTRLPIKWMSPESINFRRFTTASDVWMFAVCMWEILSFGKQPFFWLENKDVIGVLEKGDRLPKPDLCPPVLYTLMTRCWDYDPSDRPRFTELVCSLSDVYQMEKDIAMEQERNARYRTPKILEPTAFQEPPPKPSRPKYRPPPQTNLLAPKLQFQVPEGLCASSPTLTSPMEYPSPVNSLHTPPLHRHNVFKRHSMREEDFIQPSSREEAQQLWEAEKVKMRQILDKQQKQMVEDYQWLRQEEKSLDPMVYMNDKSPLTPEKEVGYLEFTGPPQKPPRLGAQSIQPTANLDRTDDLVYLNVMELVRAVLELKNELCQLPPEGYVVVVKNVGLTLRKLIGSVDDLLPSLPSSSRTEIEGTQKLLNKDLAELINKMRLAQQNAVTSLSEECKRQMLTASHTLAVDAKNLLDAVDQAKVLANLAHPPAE
# UniProt P07949, whole entry, looked up: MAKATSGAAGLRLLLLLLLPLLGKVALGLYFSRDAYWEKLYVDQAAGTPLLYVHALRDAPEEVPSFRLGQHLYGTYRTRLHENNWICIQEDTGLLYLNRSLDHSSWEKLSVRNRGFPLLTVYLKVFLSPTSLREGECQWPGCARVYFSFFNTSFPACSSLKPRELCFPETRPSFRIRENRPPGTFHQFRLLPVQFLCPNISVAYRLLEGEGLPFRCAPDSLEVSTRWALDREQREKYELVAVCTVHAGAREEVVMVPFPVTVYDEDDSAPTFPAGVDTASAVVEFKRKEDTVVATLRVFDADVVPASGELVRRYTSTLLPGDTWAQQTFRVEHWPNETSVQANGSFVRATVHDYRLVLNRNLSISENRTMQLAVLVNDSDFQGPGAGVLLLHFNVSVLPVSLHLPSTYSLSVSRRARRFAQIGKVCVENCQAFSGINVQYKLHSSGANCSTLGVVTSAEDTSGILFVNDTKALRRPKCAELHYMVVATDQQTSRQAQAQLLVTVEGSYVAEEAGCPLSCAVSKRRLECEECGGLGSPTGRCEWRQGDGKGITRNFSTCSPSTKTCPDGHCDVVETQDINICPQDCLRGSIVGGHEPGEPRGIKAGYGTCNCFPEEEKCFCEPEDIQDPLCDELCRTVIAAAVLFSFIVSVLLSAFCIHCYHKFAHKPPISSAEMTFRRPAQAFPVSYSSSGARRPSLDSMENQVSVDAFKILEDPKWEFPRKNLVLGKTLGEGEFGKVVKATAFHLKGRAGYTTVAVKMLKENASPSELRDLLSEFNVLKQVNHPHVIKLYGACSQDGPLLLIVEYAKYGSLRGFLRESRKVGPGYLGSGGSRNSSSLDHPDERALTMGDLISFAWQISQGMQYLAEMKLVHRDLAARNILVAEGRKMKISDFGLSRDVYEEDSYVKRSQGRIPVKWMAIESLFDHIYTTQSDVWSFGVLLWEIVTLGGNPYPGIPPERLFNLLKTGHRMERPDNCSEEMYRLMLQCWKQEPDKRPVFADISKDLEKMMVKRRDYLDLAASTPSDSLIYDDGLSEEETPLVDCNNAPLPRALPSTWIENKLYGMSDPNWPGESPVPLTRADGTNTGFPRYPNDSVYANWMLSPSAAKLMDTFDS
# UniProt P07949, whole entry M918T, looked up: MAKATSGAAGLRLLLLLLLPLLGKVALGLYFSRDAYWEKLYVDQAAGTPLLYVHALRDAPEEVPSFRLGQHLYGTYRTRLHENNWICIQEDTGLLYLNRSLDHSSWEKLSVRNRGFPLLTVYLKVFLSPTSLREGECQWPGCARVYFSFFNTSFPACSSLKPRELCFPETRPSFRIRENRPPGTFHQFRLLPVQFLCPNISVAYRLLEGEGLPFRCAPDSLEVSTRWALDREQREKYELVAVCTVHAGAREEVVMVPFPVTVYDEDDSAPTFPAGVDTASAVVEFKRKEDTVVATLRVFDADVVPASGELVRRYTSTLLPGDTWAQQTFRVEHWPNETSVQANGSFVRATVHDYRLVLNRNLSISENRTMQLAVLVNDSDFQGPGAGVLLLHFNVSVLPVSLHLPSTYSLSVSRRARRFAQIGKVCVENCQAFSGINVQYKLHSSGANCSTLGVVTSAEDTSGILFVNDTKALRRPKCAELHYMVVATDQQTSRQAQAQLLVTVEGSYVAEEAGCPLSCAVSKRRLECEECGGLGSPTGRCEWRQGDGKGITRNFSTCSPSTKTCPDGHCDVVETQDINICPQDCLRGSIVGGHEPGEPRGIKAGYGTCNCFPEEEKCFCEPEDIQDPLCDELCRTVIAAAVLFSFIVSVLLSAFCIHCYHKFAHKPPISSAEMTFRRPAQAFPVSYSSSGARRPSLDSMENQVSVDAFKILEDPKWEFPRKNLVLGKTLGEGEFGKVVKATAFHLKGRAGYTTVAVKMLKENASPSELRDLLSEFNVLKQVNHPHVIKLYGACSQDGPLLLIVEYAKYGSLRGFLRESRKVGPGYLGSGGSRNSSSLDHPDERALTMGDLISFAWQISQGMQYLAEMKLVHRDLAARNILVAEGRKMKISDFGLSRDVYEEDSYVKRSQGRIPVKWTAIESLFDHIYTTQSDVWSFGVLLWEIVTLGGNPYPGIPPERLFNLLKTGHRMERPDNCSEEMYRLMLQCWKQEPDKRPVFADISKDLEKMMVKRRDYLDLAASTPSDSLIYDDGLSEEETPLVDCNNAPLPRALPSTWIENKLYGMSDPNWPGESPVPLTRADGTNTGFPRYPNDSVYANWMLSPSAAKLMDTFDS
# UniProt Q9BRS2: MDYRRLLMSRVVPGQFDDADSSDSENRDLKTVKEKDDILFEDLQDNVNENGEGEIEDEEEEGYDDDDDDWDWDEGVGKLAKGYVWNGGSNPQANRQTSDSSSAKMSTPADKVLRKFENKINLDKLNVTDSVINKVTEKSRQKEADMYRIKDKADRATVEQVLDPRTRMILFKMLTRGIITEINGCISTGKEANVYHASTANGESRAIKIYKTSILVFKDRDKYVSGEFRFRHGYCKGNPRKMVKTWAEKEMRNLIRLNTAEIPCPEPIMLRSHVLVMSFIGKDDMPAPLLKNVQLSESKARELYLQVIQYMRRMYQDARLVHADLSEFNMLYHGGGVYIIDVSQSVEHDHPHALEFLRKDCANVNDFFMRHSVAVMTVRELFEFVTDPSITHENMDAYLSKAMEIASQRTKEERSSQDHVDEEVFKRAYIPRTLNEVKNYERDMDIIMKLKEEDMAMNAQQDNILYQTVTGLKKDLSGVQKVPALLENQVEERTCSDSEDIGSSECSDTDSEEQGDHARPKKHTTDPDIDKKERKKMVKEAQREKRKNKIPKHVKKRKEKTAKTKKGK
# Legend:
# Assay in all cases: kinase-Nluc reporter destabilization hit call (1 = scored as downregulated) (binary); higher = compound decreases kinase abundance
# Conditions in all cases: K562; 2-18 h
# PDPK1 = PDPK1 (UniProt O15530)
# PIK4CA = PIK4CA (UniProt P42356)
# PIK4CB = PIK4CB (UniProt Q9UBF8)
# PLK1 = PLK1 (UniProt P53350)
# PRKAA1 = PRKAA1 (UniProt Q13131)
# PRKCA = PRKCA (UniProt P17252)
# PTK2 = PTK2 (UniProt Q05397)
# PTK2B = PTK2B (UniProt Q14289)
# RAF1 = RAF1 (UniProt P04049)
# [1] = molecular target: RAF1_S257L (clone: RAF1_mut) (UniProt P04049)
# RET = RET (UniProt P07949)
# [2] = molecular target: RET_M918T (clone: RET_mut) (UniProt P07949)
# RIOK1 = RIOK1 (UniProt Q9BRS2)
# RIPK1 = RIPK1 (UniProt Q13546)
# RIPK2 = RIPK2 (UniProt O43353)
# ROR2 = ROR2 (UniProt Q01974)
# RPS6KA1 = RPS6KA1 (UniProt Q15418)
# SPHK1 = SPHK1 (UniProt Q9NYA1)
# SRC = SRC (UniProt P12931)
# STK24 = STK24 (UniProt Q9Y6E0)
Structure (SMILES),kinase-Nluc reporter destabilization hit call (PDPK1),kinase-Nluc reporter destabilization hit call (PIK4CA),kinase-Nluc reporter destabilization hit call (PIK4CB),kinase-Nluc reporter destabilization hit call (PLK1),kinase-Nluc reporter destabilization hit call (PRKAA1),kinase-Nluc reporter destabilization hit call (PRKCA),kinase-Nluc reporter destabilization hit call (PTK2),kinase-Nluc reporter destabilization hit call (PTK2B),kinase-Nluc reporter destabilization hit call (RAF1),kinase-Nluc reporter destabilization hit call [1],kinase-Nluc reporter destabilization hit call (RET),kinase-Nluc reporter destabilization hit call [2],kinase-Nluc reporter destabilization hit call (RIOK1),kinase-Nluc reporter destabilization hit call (RIPK1),kinase-Nluc reporter destabilization hit call (RIPK2),kinase-Nluc reporter destabilization hit call (ROR2),kinase-Nluc reporter destabilization hit call (RPS6KA1),kinase-Nluc reporter destabilization hit call (SPHK1),kinase-Nluc reporter destabilization hit call (SRC),kinase-Nluc reporter destabilization hit call (STK24)
CN(C)CCC=C1c2ccccc2CCc2ccccc21 [Amitriptyline (hydrochloride)] (2.5 µM),inactive: 0,inactive: 0,inactive: 0,inactive: 0,inactive: 0,inactive: 0,inactive: 0,inactive: 0,inactive: 0,inactive: 0,inactive: 0,inactive: 0,inactive: 0,inactive: 0,inactive: 0,inactive: 0,inactive: 0,inactive: 0,inactive: 0,inactive: 0
O=C(Nc1nc2ccccc2[nH]1)c1cccc([N+](=O)[O-])c1 [IRAK-4 protein kinase inhibitor 2] (10 µM),inactive: 0,inactive: 0,inactive: 0,inactive: 0,inactive: 0,inactive: 0,inactive: 0,inactive: 0,inactive: 0,inactive: 0,inactive: 0,inactive: 0,inactive: 0,inactive: 0,inactive: 0,inactive: 0,inactive: 0,inactive: 0,inactive: 0,inactive: 0
c1ccc(-c2nc(=NCCN3CCOCC3)sn2-c2ccccc2)cc1 [VP3.15 (dihydrobromide)] (10 µM),inactive: 0,inactive: 0,inactive: 0,inactive: 0,inactive: 0,inactive: 0,inactive: 0,inactive: 0,inactive: 0,inactive: 0,inactive: 0,inactive: 0,inactive: 0,inactive: 0,inactive: 0,inactive: 0,inactive: 0,inactive: 0,inactive: 0,inactive: 0
C[C@@H]1O[C@@H](O[C@@H]2[C@@H](O)[C@H](OCCc3ccc(O)c(O)c3)O[C@H](CO)[C@H]2OC(=O)/C=C/c2ccc(O)c(O)c2)[C@H](O)[C@H](O)[C@H]1O [Verbascoside] (10 µM),inactive: 0,inactive: 0,inactive: 0,inactive: 0,inactive: 0,inactive: 0,inactive: 0,inactive: 0,inactive: 0,inactive: 0,inactive: 0,inactive: 0,inactive: 0,inactive: 0,inactive: 0,inactive: 0,inactive: 0,inactive: 0,inactive: 0,inactive: 0
CCN(CC)c1cc2oc(=O)c(-c3nc4ccccc4o3)cc2cc1C (2.5 µM),inactive: 0,inactive: 0,inactive: 0,inactive: 0,inactive: 0,inactive: 0,inactive: 0,inactive: 0,inactive: 0,inactive: 0,inactive: 0,inactive: 0,inactive: 0,inactive: 0,inactive: 0,inactive: 0,inactive: 0,inactive: 0,inactive: 0,inactive: 0
CNc1cc(Nc2cccn(-c3ccccn3)c2=O)nn2c(C(=O)N[C@@H]3C[C@@H]3F)cnc12 (2.5 µM),inactive: 0,inactive: 0,inactive: 0,inactive: 0,inactive: 0,inactive: 0,inactive: 0,active: 1,inactive: 0,inactive: 0,inactive: 0,inactive: 0,inactive: 0,inactive: 0,inactive: 0,inactive: 0,inactive: 0,inactive: 0,inactive: 0,inactive: 0
COc1ccc2cc3[n+](cc2c1OC)CCc1cc(O)c(O)cc1-3 [Demethyleneberberine] (10 µM),inactive: 0,inactive: 0,inactive: 0,inactive: 0,inactive: 0,inactive: 0,inactive: 0,inactive: 0,inactive: 0,inactive: 0,inactive: 0,inactive: 0,inactive: 0,inactive: 0,inactive: 0,inactive: 0,inactive: 0,inactive: 0,inactive: 0,inactive: 0
CC(C)(C)n1nc(Cc2ccccc2O)c2c(N)ncnc21 (10 µM),inactive: 0,inactive: 0,inactive: 0,inactive: 0,inactive: 0,inactive: 0,inactive: 0,inactive: 0,inactive: 0,inactive: 0,inactive: 0,inactive: 0,inactive: 0,inactive: 0,inactive: 0,inactive: 0,inactive: 0,inactive: 0,inactive: 0,inactive: 0
CCN(CC)CCC(=O)N1N=C(c2c(-c3ccccc3)c3cc(Br)ccc3[nH]c2=O)CC1c1ccc(Br)cc1 (stereo not given) (2.5 µM),inactive: 0,inactive: 0,inactive: 0,inactive: 0,inactive: 0,inactive: 0,inactive: 0,inactive: 0,inactive: 0,inactive: 0,inactive: 0,inactive: 0,inactive: 0,inactive: 0,inactive: 0,inactive: 0,inactive: 0,inactive: 0,inactive: 0,inactive: 0
Nc1nccc(Oc2ccc(NC(=O)c3c[nH]cc(-c4ccc(F)cc4)c3=O)cc2F)c1Cl (10 µM),inactive: 0,inactive: 0,inactive: 0,inactive: 0,inactive: 0,inactive: 0,inactive: 0,inactive: 0,inactive: 0,inactive: 0,inactive: 0,inactive: 0,inactive: 0,inactive: 0,inactive: 0,inactive: 0,inactive: 0,inactive: 0,inactive: 0,inactive: 0
CN1CC[C@@H](c2c(O)cc(O)c3c(=O)cc(-c4ccc(C(F)(F)F)cc4Cl)oc23)[C@@H]1CO [Voruciclib (hydrochloride)] (10 µM),inactive: 0,inactive: 0,inactive: 0,inactive: 0,inactive: 0,inactive: 0,inactive: 0,inactive: 0,inactive: 0,inactive: 0,inactive: 0,inactive: 0,inactive: 0,inactive: 0,inactive: 0,inactive: 0,inactive: 0,inactive: 0,inactive: 0,inactive: 0
CNc1nc(Nc2ccc(C(=O)N3CCOCC3)cc2OC)ncc1Cl (2.5 µM),inactive: 0,inactive: 0,inactive: 0,inactive: 0,inactive: 0,inactive: 0,inactive: 0,inactive: 0,inactive: 0,inactive: 0,inactive: 0,inactive: 0,inactive: 0,inactive: 0,inactive: 0,inactive: 0,inactive: 0,inactive: 0,inactive: 0,inactive: 0
CC(C)=CCc1c(-c2ccc(O)cc2O)oc2c3c(cc(O)c2c1=O)OC(C)(C)C=C3 [Morusin] (2.5 µM),inactive: 0,inactive: 0,inactive: 0,inactive: 0,inactive: 0,inactive: 0,inactive: 0,inactive: 0,inactive: 0,inactive: 0,inactive: 0,inactive: 0,inactive: 0,inactive: 0,inactive: 0,inactive: 0,inactive: 0,inactive: 0,inactive: 0,inactive: 0
Cc1nn(C)c2c1C(c1ccc(C(F)(F)F)cc1)C(C#N)=C(N)O2 (stereo not given) (10 µM),inactive: 0,inactive: 0,inactive: 0,inactive: 0,inactive: 0,inactive: 0,inactive: 0,inactive: 0,inactive: 0,inactive: 0,inactive: 0,inactive: 0,inactive: 0,inactive: 0,inactive: 0,inactive: 0,inactive: 0,inactive: 0,inactive: 0,inactive: 0
O=c1cc(-c2cccc3c2Sc2ccccc2S3)oc(N2CCOCC2)c1 (10 µM),inactive: 0,inactive: 0,inactive: 0,inactive: 0,inactive: 0,inactive: 0,inactive: 0,inactive: 0,inactive: 0,inactive: 0,inactive: 0,inactive: 0,inactive: 0,inactive: 0,inactive: 0,inactive: 0,inactive: 0,inactive: 0,inactive: 0,inactive: 0
Oc1ccc(/C=C/c2cc(O)cc(O)c2)cc1 [Resveratrol] (10 µM),inactive: 0,inactive: 0,inactive: 0,inactive: 0,inactive: 0,inactive: 0,inactive: 0,inactive: 0,inactive: 0,inactive: 0,inactive: 0,inactive: 0,inactive: 0,inactive: 0,inactive: 0,inactive: 0,inactive: 0,inactive: 0,inactive: 0,inactive: 0
Cc1cc2sc(NC(=O)Cc3ccccc3)nc2cc1Cl (10 µM),inactive: 0,inactive: 0,inactive: 0,inactive: 0,inactive: 0,inactive: 0,inactive: 0,inactive: 0,inactive: 0,inactive: 0,inactive: 0,inactive: 0,inactive: 0,inactive: 0,inactive: 0,inactive: 0,inactive: 0,inactive: 0,inactive: 0,inactive: 0
Nc1nc(N)c2nc(-c3cccc(O)c3)cnc2n1 (10 µM),inactive: 0,inactive: 0,inactive: 0,inactive: 0,inactive: 0,inactive: 0,inactive: 0,inactive: 0,inactive: 0,inactive: 0,inactive: 0,inactive: 0,inactive: 0,inactive: 0,inactive: 0,inactive: 0,inactive: 0,inactive: 0,inactive: 0,inactive: 0

# Only kinase-Nluc reporter destabilization hit call (RET) and kinase-Nluc reporter destabilization hit call (RIPK2), for 2 of the compounds above:
Structure (SMILES)	kinase-Nluc reporter destabilization hit call (RET)	kinase-Nluc reporter destabilization hit call (RIPK2)
Cc1cc2sc(NC(=O)Cc3ccccc3)nc2cc1Cl (10 µM)	inactive: 0	inactive: 0
Nc1nc(N)c2nc(-c3cccc(O)c3)cnc2n1 (10 µM)	inactive: 0	inactive: 0

# — the supplement of paper PMC12823440, “Inhibitors supercharge kinase turnover through native proteolytic circuits” (Nature, 2025)
